Source: the supplement of paper PMC10849652
This is one part of the list.

Sequences of proteins named here, by UniProt entry; tags and fusion partners are left off. A change or cut given only in a name is not applied to a line headed by its entry.
UniProt Q8TCA0: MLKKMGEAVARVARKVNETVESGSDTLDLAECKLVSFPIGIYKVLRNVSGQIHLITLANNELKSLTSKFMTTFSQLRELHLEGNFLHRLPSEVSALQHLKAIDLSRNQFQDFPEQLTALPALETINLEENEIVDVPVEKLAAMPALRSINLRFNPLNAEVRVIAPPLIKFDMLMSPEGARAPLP
UniProt Q9UIC8: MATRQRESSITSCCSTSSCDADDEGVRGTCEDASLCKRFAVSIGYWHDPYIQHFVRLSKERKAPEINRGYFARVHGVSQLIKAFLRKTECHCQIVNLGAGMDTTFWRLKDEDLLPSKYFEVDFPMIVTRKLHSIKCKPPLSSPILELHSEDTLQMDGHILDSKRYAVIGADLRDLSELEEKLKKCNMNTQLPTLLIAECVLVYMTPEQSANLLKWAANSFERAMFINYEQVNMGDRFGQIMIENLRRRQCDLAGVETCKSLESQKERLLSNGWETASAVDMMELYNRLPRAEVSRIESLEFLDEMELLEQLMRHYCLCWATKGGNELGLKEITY
UniProt Q53H82: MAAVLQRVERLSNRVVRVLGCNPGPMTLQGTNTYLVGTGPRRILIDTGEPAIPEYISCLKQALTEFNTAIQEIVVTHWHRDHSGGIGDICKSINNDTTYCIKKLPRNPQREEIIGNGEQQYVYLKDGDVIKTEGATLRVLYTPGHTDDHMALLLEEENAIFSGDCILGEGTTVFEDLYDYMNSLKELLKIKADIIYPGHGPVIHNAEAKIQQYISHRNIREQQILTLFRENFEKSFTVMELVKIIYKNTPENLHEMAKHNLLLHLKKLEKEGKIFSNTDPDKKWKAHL
UniProt P09382, whole entry, looked up: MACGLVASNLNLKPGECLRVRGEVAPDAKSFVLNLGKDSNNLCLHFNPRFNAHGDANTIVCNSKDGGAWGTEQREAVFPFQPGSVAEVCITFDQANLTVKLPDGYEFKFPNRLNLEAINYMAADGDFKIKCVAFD
UniProt Q6ZN17: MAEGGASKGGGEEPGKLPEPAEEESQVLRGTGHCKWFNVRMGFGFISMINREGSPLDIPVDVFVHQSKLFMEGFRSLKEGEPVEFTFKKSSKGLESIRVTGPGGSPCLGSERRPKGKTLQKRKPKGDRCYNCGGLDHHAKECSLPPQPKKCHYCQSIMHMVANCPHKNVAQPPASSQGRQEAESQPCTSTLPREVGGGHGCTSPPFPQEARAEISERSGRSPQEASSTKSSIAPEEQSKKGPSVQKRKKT
UniProt Q5TKA1: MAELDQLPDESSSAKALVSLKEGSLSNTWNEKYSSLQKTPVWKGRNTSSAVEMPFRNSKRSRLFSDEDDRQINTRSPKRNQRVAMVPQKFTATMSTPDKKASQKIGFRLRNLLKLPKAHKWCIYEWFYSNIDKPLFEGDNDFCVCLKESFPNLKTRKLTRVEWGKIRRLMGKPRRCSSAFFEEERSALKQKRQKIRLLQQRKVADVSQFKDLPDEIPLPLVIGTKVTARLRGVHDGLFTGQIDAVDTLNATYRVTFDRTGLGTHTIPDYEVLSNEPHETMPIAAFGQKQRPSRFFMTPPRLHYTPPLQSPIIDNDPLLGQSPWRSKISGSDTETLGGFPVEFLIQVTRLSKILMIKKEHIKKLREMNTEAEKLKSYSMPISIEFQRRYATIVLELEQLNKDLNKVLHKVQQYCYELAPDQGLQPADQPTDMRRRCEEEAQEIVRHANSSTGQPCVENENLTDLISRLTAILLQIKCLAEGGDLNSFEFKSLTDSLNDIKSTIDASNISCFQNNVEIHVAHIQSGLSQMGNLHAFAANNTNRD
UniProt Q8N9N7: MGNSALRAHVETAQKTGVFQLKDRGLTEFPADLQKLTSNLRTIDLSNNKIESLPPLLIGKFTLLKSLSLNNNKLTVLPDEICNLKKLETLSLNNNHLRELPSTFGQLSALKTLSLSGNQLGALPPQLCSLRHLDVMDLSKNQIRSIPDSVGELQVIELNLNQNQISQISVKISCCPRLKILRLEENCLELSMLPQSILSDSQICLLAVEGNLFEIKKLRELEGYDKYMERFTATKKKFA
UniProt Q9UN81: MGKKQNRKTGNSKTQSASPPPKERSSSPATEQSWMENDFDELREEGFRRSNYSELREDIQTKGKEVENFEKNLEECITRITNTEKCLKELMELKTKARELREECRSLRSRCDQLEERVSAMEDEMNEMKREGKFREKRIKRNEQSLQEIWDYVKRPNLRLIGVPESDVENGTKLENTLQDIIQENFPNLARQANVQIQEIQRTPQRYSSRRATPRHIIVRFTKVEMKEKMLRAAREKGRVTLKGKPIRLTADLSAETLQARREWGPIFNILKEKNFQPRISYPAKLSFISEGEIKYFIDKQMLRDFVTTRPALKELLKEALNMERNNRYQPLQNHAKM
UniProt Q9GZZ8: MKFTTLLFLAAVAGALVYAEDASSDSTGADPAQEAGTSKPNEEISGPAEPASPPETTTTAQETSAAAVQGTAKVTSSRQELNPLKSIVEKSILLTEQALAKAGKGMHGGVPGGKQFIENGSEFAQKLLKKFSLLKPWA
UniProt Q16773: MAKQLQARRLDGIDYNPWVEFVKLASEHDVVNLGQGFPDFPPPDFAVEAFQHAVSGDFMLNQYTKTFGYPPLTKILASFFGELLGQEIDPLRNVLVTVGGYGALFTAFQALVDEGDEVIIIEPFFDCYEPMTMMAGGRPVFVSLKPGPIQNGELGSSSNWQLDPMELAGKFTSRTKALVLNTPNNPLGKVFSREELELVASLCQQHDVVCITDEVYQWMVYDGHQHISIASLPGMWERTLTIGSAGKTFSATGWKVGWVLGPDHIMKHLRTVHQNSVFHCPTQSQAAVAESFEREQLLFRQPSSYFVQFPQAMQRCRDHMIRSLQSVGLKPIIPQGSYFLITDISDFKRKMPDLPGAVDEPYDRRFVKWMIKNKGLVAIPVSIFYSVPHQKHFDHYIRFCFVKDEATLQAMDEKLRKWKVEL
UniProt P23490: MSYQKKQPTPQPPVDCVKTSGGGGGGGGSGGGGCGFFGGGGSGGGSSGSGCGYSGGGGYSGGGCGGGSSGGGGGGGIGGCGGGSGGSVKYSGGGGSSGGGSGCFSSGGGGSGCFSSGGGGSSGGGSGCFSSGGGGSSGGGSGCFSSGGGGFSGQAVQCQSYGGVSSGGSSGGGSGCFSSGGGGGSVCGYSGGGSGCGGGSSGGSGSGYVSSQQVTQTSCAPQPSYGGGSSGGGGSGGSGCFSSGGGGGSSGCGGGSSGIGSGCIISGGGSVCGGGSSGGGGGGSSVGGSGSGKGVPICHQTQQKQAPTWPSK
UniProt Q9NS86: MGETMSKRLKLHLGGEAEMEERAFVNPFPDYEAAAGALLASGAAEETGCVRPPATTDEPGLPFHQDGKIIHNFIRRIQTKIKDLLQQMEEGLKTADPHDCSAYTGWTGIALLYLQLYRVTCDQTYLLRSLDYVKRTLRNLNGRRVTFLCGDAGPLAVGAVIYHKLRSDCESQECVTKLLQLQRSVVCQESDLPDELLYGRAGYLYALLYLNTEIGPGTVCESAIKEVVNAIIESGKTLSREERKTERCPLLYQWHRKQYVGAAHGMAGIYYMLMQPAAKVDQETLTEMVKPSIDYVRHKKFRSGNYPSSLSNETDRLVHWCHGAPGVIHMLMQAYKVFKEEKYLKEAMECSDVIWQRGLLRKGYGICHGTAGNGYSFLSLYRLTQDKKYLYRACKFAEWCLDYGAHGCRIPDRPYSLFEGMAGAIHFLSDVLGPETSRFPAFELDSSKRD
UniProt P07942: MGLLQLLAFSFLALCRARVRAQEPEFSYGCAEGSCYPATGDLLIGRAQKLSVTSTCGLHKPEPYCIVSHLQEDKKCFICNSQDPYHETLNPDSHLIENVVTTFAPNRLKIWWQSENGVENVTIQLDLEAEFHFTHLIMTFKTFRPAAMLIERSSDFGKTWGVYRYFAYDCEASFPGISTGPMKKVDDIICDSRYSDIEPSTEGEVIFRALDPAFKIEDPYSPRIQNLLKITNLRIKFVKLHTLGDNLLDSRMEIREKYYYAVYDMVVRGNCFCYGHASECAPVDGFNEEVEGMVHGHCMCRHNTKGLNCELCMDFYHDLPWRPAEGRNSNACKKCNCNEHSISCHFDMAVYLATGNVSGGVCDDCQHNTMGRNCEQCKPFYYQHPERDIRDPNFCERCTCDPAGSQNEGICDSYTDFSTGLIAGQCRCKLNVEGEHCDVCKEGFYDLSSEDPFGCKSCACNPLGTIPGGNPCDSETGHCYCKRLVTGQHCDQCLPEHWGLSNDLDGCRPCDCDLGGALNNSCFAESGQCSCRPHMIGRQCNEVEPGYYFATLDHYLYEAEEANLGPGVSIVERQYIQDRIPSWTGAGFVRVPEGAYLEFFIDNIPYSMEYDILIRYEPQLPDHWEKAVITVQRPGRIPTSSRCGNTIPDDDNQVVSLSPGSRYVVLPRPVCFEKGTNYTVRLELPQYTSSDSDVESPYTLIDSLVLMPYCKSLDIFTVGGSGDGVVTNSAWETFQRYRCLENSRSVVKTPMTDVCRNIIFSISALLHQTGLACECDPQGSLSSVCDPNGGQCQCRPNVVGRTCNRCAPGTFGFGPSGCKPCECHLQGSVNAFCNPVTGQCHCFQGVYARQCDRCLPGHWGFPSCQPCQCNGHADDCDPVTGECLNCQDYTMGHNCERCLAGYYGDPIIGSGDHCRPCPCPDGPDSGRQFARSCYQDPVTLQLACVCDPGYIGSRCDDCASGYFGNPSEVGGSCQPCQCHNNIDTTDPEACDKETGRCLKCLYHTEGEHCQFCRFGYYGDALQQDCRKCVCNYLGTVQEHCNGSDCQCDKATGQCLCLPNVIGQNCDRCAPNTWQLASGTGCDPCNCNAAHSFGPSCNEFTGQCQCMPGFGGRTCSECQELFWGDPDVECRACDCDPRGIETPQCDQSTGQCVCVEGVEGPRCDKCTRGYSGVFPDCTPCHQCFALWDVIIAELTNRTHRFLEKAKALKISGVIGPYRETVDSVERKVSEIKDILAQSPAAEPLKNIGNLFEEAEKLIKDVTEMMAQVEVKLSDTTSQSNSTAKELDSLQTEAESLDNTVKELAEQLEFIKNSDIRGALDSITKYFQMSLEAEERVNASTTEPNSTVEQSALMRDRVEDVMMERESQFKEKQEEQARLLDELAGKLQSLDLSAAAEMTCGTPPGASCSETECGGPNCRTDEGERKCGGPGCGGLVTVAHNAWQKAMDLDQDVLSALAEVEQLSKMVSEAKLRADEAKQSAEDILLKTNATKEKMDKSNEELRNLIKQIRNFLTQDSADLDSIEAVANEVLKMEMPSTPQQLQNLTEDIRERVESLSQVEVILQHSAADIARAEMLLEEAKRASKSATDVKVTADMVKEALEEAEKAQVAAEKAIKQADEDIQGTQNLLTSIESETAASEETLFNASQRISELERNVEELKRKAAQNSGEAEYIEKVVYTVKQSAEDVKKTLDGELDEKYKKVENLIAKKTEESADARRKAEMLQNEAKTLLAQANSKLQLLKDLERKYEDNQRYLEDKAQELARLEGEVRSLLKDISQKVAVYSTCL
UniProt Q86U70: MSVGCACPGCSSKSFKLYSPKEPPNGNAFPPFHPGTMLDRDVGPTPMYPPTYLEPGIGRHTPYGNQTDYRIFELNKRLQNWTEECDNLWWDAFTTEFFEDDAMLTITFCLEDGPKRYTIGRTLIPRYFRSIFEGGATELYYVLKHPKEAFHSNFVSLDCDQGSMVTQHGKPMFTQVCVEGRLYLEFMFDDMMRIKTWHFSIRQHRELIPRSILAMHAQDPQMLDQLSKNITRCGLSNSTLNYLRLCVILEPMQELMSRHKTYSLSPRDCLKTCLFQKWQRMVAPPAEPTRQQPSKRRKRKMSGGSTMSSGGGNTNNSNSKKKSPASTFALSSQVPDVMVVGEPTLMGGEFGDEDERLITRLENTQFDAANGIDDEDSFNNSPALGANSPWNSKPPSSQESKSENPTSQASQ
UniProt Q9H008: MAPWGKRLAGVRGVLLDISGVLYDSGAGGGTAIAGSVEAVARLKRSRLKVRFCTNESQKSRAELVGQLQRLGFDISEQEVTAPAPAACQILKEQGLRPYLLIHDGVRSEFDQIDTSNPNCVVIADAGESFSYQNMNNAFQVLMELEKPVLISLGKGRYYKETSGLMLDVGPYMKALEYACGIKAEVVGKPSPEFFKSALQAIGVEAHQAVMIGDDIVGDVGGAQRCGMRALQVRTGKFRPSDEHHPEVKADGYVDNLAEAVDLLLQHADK
UniProt Q6YP21: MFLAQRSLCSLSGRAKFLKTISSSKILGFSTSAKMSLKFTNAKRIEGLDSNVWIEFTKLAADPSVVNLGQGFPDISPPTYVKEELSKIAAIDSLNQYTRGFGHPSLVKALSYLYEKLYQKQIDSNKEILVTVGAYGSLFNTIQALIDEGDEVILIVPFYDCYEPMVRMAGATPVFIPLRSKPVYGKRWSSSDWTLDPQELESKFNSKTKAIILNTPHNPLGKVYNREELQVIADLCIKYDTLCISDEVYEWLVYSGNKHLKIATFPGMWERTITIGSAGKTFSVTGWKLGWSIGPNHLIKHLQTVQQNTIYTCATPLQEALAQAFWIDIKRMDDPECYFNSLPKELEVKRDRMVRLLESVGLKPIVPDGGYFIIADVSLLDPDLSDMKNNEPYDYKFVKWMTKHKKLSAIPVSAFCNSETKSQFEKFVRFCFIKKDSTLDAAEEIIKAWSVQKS

Each target was assayed with c1cn2cc(-c3ccc4cn[nH]c4c3)nc(Nc3ccc(N4CCOCC4)cc3)c2n1 [entospletinib] (assay: log2 fold change, soluble protein after heating vs DMSO (PISA); higher = thermal stabilisation; K562 cells, 10 uM, 30 min; active = over 0.2 and 3.5 SD of the protein, either way, in both replicates (recomputed)).
How it was run: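 K562 cells at 2×10^6 cells/mL were exposed to 10 μM compound for 30 min, then aliquots were heated for 3 min across 48°C-58°C, pooled, and extracted in PBS containing 0.5% NP-40 at 4°C. The supernatant after 21,000xg for 90 min was taken as soluble protein and measured by TMTpro 16plex LC-MS/MS with channel sums equalised. Thermal stability is reported relative to control samples, with values from duplicates. Fold changes are given on a log2 scale.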

log2 fold change, inactive:
LRRC20 (UniProt Q8TCA0) 0.023, LCMT1 (UniProt Q9UIC8) -0.036, LIMK2 isoform 3 (UniProt P53671) 0.033, LEPR (UniProt P48357) 0.042, KYNU (UniProt Q16719) -0.02, LDHB (UniProt P07195) 0.027, LASP1 (UniProt Q14847) -0.018, LIMD2 (UniProt Q9BT23) 0.204, LARS (UniProt Q9P2J5) 0.113, LCMT2 (UniProt O60294) 0.334, LAMTOR3 (UniProt Q9UHA4) -0.014, LACTB2 (UniProt Q53H82) -0.004, LCP2 (UniProt Q13094) -0.04, LIMS1 isoform 3 (UniProt P48059) -0.025, LGALS3 (UniProt P17931) -0.095, LGALS1 (UniProt P09382) -0.016, LIN7C (UniProt Q9NUP9) 0.024, LAMTOR1 (UniProt Q6IAA8) -0.06, LAMTOR5 (UniProt O43504) -0.032, LIN28B (UniProt Q6ZN17) 0.112, LAMTOR4 (UniProt Q0VGL1) 0.009, LIN9 isoform 2 (UniProt Q5TKA1) 0.166, LRRC57 (UniProt Q8N9N7) 0.052, LINC00526 (UniProt Q96FQ7) 0.01, L1RE1 (UniProt Q9UN81) 0.053, LIG4 (UniProt P49917) -0.005, LMAN1 (UniProt P49257) 0.007, LDHA isoform 3 (UniProt P00338) -0.01, KTI12 (UniProt Q96EK9) 0.034, LACRT (UniProt Q9GZZ8) 0.14, KYAT1 (UniProt Q16773) 0.013, LOR (UniProt P23490) -0.313, L3HYPDH (UniProt Q96EM0) 0.054, LANCL2 (UniProt Q9NS86) -0.054, LAMB1 (UniProt P07942) -0.012, LDB1 (UniProt Q86U70) -0.026, LHPP (UniProt Q9H008) -0.109, LRRC4B (UniProt Q9NT99) -0.133, KYAT3 (UniProt Q6YP21) -0.004, LCP1 (UniProt P13796) -0.02
